Laboratory results: PubChem BioAssay AID1224828 (NIAID, 2016)
In all, the deposit lists about 17,000 reagents; below is a random part of them. 762 of all reagents (4.5%) count as active. 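Active calls include both raised and lowered p65 entry, mostly lowered; wells with fewer than 50 cells lack a z-score.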 The raw values are shown without normalisation.

- Screen: 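Knock-downs that increase or decrease LPS-induced p65 nuclear translocation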 (primary screen)
- Cell system: mouse RAW264.7 G9 macrophage reporter cells (GFP-p65, Tnf promoter-mCherry)
- Reagent: siRNA pool against mouse genes, 100 nM
- Time to read-out: 2 days siRNA transfection, then 40 min LPS before fixation
- Challenge: LPS (Salmonella minnesota R595) at 10 ng/ml
- Read-out: 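Microscopy ratio of nuclear to perinuclear-ring GFP-p65 signal, scaled to the plate median; gene score is the average of two replicate robust z-scores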
- Scale: p65 translocation robust z-score: higher = more nuclear NF-kappaB p65 after LPS than the plate median; nuclear/cytoplasmic p65 ratio: higher = more nuclear NF-kappaB p65
- Hit rule: 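Called active when z exceeds 3.3 or falls under -1.56 (median of Tlr4 controls), giving activity score of at least 50; no calls for control wells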
- Meaning of the calls: active = hit (p65 shift raised or lowered); inactive = no clear change

After knock-down of Mtfr1l (mitochondrial fission regulator 1-like), the record shows p65 translocation robust z-score -0.55; nuclear/cytoplasmic p65 ratio, rep 1 = 1.31; nuclear/cytoplasmic p65 ratio, rep 2 = 1.41; low cell count flag enough cells to score; inactive.
Depletion of Nyap1 gave: p65 translocation robust z-score -0.1; nuclear/cytoplasmic p65 ratio, rep 1 = 1.38; nuclear/cytoplasmic p65 ratio, rep 2 = 1.56; low cell count flag enough cells to score; inactive.
Cyp4f39 (cytochrome P450, family 4, subfamily f, polypeptide 39) showed nuclear/cytoplasmic p65 ratio, rep 1 = 1.24; nuclear/cytoplasmic p65 ratio, rep 2 = 1.3; low cell count flag fewer than 50 cells per well; well left out of scoring; inactive.
With knock-down of Trmt112 (tRNA methyltransferase 11-2), the record shows p65 translocation robust z-score -0.16; nuclear/cytoplasmic p65 ratio, rep 1 = 1.38; nuclear/cytoplasmic p65 ratio, rep 2 = 1.56; low cell count flag enough cells to score; inactive.
After knock-down of Myl6, the screen gave p65 translocation robust z-score 0.87; nuclear/cytoplasmic p65 ratio, rep 1 = 1.48; nuclear/cytoplasmic p65 ratio, rep 2 = 1.53; low cell count flag enough cells to score; inactive.

Reformatted: results already given.
{"gene symbol": "Cyp4f39 (cytochrome P450, family 4, subfamily f, polypeptide 39)", "nuclear/cytoplasmic p65 ratio, rep 1": 1.24, "nuclear/cytoplasmic p65 ratio, rep 2": 1.3, "low cell count flag": "fewer than 50 cells per well; well left out of scoring", "activity call": "inactive"}
{"gene symbol": "Trmt112 (tRNA methyltransferase 11-2)", "p65 translocation robust z-score": -0.16, "nuclear/cytoplasmic p65 ratio, rep 1": 1.38, "nuclear/cytoplasmic p65 ratio, rep 2": 1.56, "low cell count flag": "enough cells to score", "activity call": "inactive"}

The results go on.
BC006965 (cDNA sequence BC006965) gave p65 translocation robust z-score 1.8; nuclear/cytoplasmic p65 ratio, rep 1 = 1.55; nuclear/cytoplasmic p65 ratio, rep 2 = 2.15; low cell count flag enough cells to score; inactive.
Rbbp5 showed p65 translocation robust z-score 0.73; nuclear/cytoplasmic p65 ratio, rep 1 = 1.53; nuclear/cytoplasmic p65 ratio, rep 2 = 1.71; low cell count flag enough cells to score; inactive.
Against Cdh23 (cadherin related 23 (otocadherin)), the values are p65 translocation robust z-score -0.87; nuclear/cytoplasmic p65 ratio, rep 1 = 1.31; nuclear/cytoplasmic p65 ratio, rep 2 = 1.3; low cell count flag enough cells to score; inactive.
Knock-down of Pla2g4a (phospholipase A2, group IVA (cytosolic, calcium-dependent)) came out at: p65 translocation robust z-score -1.65; nuclear/cytoplasmic p65 ratio, rep 1 = 1.26; nuclear/cytoplasmic p65 ratio, rep 2 = 1.2; low cell count flag enough cells to score; active.
For Gpr75 (G protein-coupled receptor 75) the deposit lists p65 translocation robust z-score -1.18; nuclear/cytoplasmic p65 ratio, rep 1 = 1.31; nuclear/cytoplasmic p65 ratio, rep 2 = 1.44; low cell count flag enough cells to score; inactive.
Igsf21 (immunoglobulin superfamily, member 21) gave nuclear/cytoplasmic p65 ratio, rep 1 = 1.74; nuclear/cytoplasmic p65 ratio, rep 2 = 1.8; low cell count flag fewer than 50 cells per well; well left out of scoring; inactive.
For Dnajc9 (DnaJ heat shock protein family (Hsp40) member C9), the values are p65 translocation robust z-score -0.31; nuclear/cytoplasmic p65 ratio, rep 1 = 1.4; nuclear/cytoplasmic p65 ratio, rep 2 = 1.34; low cell count flag enough cells to score; inactive.
Egln2 (egl-9 family hypoxia-inducible factor 2) showed p65 translocation robust z-score 0.01; nuclear/cytoplasmic p65 ratio, rep 1 = 1.43; nuclear/cytoplasmic p65 ratio, rep 2 = 1.4; low cell count flag enough cells to score; inactive.
Fanca (Fanconi anemia, complementation group A) showed p65 translocation robust z-score 0.51; nuclear/cytoplasmic p65 ratio, rep 1 = 1.61; nuclear/cytoplasmic p65 ratio, rep 2 = 1.37; low cell count flag enough cells to score; inactive.
